# The other results are listed elsewhere or left out. Single values are uncertain, as repeats are few or missing.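 Cells were imaged in 1,536-well plates, and nuclei stained with an antibody against cleaved PARP were counted against all DNA-stained nuclei to give the apoptosis fraction. Screening doses were chosen to leave most cells alive, and resting and induced cleaved-PARP levels differ strongly between cell lines.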
# Test system: 501Mel
# Experiment: cleaved PARP positive nuclei fraction relative to DMSO control; melanoma cells; higher = more apoptosis
# Conditions: library dose: low library concentration; 72 h
row,SMILES,cleaved PARP positive nuclei fraction
1,"N.N.[Cl][Pt][Cl] [cisplatin] + Cn1nnc2c(C(N)=O)ncn2c1=O [temozolomide] (first compound 1.6 µM, partner dose 2 µM)",90.9%
2,"Cn1cc(C2=C(c3cn(C4CCN(Cc5ccccn5)CC4)c4ccccc34)C(=O)NC2=O)c2ccccc21 [Enzastaurin] + CNC(=O)c1cc(Oc2ccc(NC(=O)Nc3ccc(Cl)c(C(F)(F)F)c3)cc2)ccn1 [sorafenib] (first compound 0.8 µM, partner dose 0.4 µM)",87.8%
3,"Cc1cn(-c2cc(NC(=O)c3ccc(C)c(Nc4nccc(-c5cccnc5)n4)c3)cc(C(F)(F)F)c2)cn1 [nilotinib] + C[As](C)SC[C@H](NC(=O)CC[C@H](N)C(=O)O)C(=O)NCC(=O)O [Darinaparsin] (first compound 0.2 µM, partner dose 0.4 µM)",72.5%
4,"Cc1ccc(Nc2nccc(N(C)c3ccc4c(C)n(C)nc4c3)n2)cc1S(N)(=O)=O [Pazopanib] + Cn1cc(C2=C(c3cn(C4CCN(Cc5ccccn5)CC4)c4ccccc34)C(=O)NC2=O)c2ccccc21 [Enzastaurin] (first compound 0.4 µM, partner dose 0.8 µM)",79%
5,"C[C@]12O[C@H](C[C@]1(O)CO)n1c3ccccc3c3c4c(c5c6ccccc6n2c5c31)CNC4=O [Lestaurtinib] + OCc1c[nH]c2ccccc12 [Indole-3-carbinol] (first compound 0.004 µM, partner dose 0.8 µM)",129%
6,"Cn1cc(C2=C(c3cn(C4CCN(Cc5ccccn5)CC4)c4ccccc34)C(=O)NC2=O)c2ccccc21 [Enzastaurin] + C[C@]1(O)C[C@@H](c2nc(-c3ccc4ccc(-c5ccccc5)nc4c3)c3c(N)nccn32)C1 [OSI906] (first compound 0.8 µM, partner dose 0.4 µM)",83.2%
7,"O=C(/C=C/c1cccnc1)NCCCCC1CCN(C(=O)c2ccccc2)CC1 + N.N.[Cl][Pt][Cl] [cisplatin] (first compound 0.01 µM, partner dose 1.6 µM)",104%
8,"O=C(Nc1cc(C(F)(F)F)cc(C(F)(F)F)c1)c1cc(Cl)ccc1O + Cn1cc(C2=C(c3cn(C4CCN(Cc5ccccn5)CC4)c4ccccc34)C(=O)NC2=O)c2ccccc21 [Enzastaurin] (first compound 0.016 µM, partner dose 0.8 µM)",79.5%
9,"C#Cc1cccc(Nc2ncnc3cc(OCCOC)c(OCCOC)cc23)c1 [erlotinib] + C[As](C)SC[C@H](NC(=O)CC[C@H](N)C(=O)O)C(=O)NCC(=O)O [Darinaparsin] (first compound 0.8 µM, partner dose 0.4 µM)",95.2%
10,"Cn1cnc2c(F)c(Nc3ccc(Br)cc3Cl)c(C(=O)NOCCO)cc21 [selumetinib] + Cn1cc(C2=C(c3cn(C4CCN(Cc5ccccn5)CC4)c4ccccc34)C(=O)NC2=O)c2ccccc21 [Enzastaurin] (first compound 0.015 µM, partner dose 0.8 µM)",924%
11,"N.N.[Cl][Pt][Cl] [cisplatin] + C[C@@H](Oc1cc(-c2cnn(C3CCNCC3)c2)cnc1N)c1c(Cl)ccc(F)c1Cl [Crizotinib] (first compound 1.6 µM, partner dose 0.2 µM)",102%

# Shown bar-delimited: part of the list above.
row | SMILES | cleaved PARP positive nuclei fraction
3 | Cc1cn(-c2cc(NC(=O)c3ccc(C)c(Nc4nccc(-c5cccnc5)n4)c3)cc(C(F)(F)F)c2)cn1 [nilotinib] + C[As](C)SC[C@H](NC(=O)CC[C@H](N)C(=O)O)C(=O)NCC(=O)O [Darinaparsin] (first compound 0.2 µM, partner dose 0.4 µM) | 72.5%
4 | Cc1ccc(Nc2nccc(N(C)c3ccc4c(C)n(C)nc4c3)n2)cc1S(N)(=O)=O [Pazopanib] + Cn1cc(C2=C(c3cn(C4CCN(Cc5ccccn5)CC4)c4ccccc34)C(=O)NC2=O)c2ccccc21 [Enzastaurin] (first compound 0.4 µM, partner dose 0.8 µM) | 79%

# Test system: A101D
# Experiment: as above
# Conditions: library dose: low library concentration; 72 h
row,SMILES,cleaved PARP positive nuclei fraction
1,"Cn1cc(C2=C(c3cn(C4CCN(Cc5ccccn5)CC4)c4ccccc34)C(=O)NC2=O)c2ccccc21 [Enzastaurin] + O=C(O)[C@@H]1[O][Sb](=[O])([O][Sb]2(=[O])[O][C@H]([C@H](O)CO)[C@H](O)[C@H](C(=O)O)[O]2)[O][C@H]([C@H](O)CO)[C@@H]1O [stibogluconate] (first compound 0.8 µM, partner dose 2 µM)",136%
2,"C[C@]12O[C@H](C[C@]1(O)CO)n1c3ccccc3c3c4c(c5c6ccccc6n2c5c31)CNC4=O [Lestaurtinib] + CNC(=O)c1cc(Oc2ccc(NC(=O)Nc3ccc(Cl)c(C(F)(F)F)c3)cc2)ccn1 [sorafenib] (first compound 0.004 µM, partner dose 0.4 µM)",208%
3,"CC1(C)CCC(c2ccc(Cl)cc2)=C(CN2CCN(c3ccc(C(=O)NS(=O)(=O)c4ccc(N[C@H](CCN5CCOCC5)CSc5ccccc5)c(S(=O)(=O)C(F)(F)F)c4)cc3)CC2)C1 + Cn1cc(C2=C(c3cn(C4CCN(Cc5ccccn5)CC4)c4ccccc34)C(=O)NC2=O)c2ccccc21 [Enzastaurin] (first compound 0.4 µM, partner dose 0.8 µM)",161%
4,"Cn1cc(C2=C(c3cn(C4CCN(Cc5ccccn5)CC4)c4ccccc34)C(=O)NC2=O)c2ccccc21 [Enzastaurin] + O=C(O)c1ccc2c(c1)nc(Nc1cccc(Cl)c1)c1ccncc12 [CX4945] (first compound 0.8 µM, partner dose 0.4 µM)",227%
5,"N.N.[Cl][Pt][Cl] [cisplatin] + CNC(=O)c1cc(Oc2ccc(NC(=O)Nc3ccc(Cl)c(C(F)(F)F)c3)cc2)ccn1 [sorafenib] (first compound 1.6 µM, partner dose 0.4 µM)",51.2%
6,"N.N.[Cl][Pt][Cl] [cisplatin] + CS(=O)(=O)CCNCc1ccc(-c2ccc3ncnc(Nc4ccc(OCc5cccc(F)c5)c(Cl)c4)c3c2)o1 [lapatinib] (first compound 1.6 µM, partner dose 0.8 µM)",41.1%
7,"C[C@]12O[C@H](C[C@]1(O)CO)n1c3ccccc3c3c4c(c5c6ccccc6n2c5c31)CNC4=O [Lestaurtinib] + Cc1cc(Nc2cc(N3CCN(C)CC3)nc(/C=C/c3ccccc3)n2)n[nH]1 [ENMD2076] (first compound 0.004 µM, partner dose 0.04 µM)",44.6%
8,"C[As](C)SC[C@H](NC(=O)CC[C@H](N)C(=O)O)C(=O)NCC(=O)O [Darinaparsin] + Cn1nnc2c(C(N)=O)ncn2c1=O [temozolomide] (first compound 0.4 µM, partner dose 2 µM)",45.3%
9,"CCCCCCCCCCCCCCCCCCOP(=O)([O-])OC1CC[N+](C)(C)CC1 [Perifosine] + Cn1cc(C2=C(c3cn(C4CCN(Cc5ccccn5)CC4)c4ccccc34)C(=O)NC2=O)c2ccccc21 [Enzastaurin] (first compound 0.4 µM, partner dose 0.8 µM)",46%
10,"C=CCNC1=C2C[C@@H](C)C[C@H](OC)[C@H](O)[C@@H](C)/C=C(\C)[C@H](OC(N)=O)[C@@H](OC)/C=C\C=C(/C)C(=O)NC(=CC1=O)C2=O [Tanespimycin] + C[As](C)SC[C@H](NC(=O)CC[C@H](N)C(=O)O)C(=O)NCC(=O)O [Darinaparsin] (first compound 0.002 µM, partner dose 0.4 µM)",48.9%
11,"Cn1sc(=O)n(Cc2ccccc2)c1=O + C[As](C)SC[C@H](NC(=O)CC[C@H](N)C(=O)O)C(=O)NCC(=O)O [Darinaparsin] (first compound 0.4 µM, partner dose 0.4 µM)",184%
12,"CC1(C)CCC(c2ccc(Cl)cc2)=C(CN2CCN(c3ccc(C(=O)NS(=O)(=O)c4ccc(N[C@H](CCN5CCOCC5)CSc5ccccc5)c(S(=O)(=O)C(F)(F)F)c4)cc3)CC2)C1 + C[As](C)SC[C@H](NC(=O)CC[C@H](N)C(=O)O)C(=O)NCC(=O)O [Darinaparsin] (first compound 0.4 µM, partner dose 0.4 µM)",135%
13,"Cc1cc(Nc2cc(N3CCN(C)CC3)nc(Sc3ccc(NC(=O)C4CC4)cc3)n2)n[nH]1 [Tozasertib] + C[As](C)SC[C@H](NC(=O)CC[C@H](N)C(=O)O)C(=O)NCC(=O)O [Darinaparsin] (first compound 0.006 µM, partner dose 0.4 µM)",145%
14,"CS(=O)(=O)c1ccc(C(=O)Nc2ccc(Cl)c(-c3ccccn3)c2)c(Cl)c1 [vismodegib] + N.N.[Cl][Pt][Cl] [cisplatin] (first compound 1 µM, partner dose 1.6 µM)",116%
15,"Cc1cc(Nc2cc(N3CCN(C)CC3)nc(/C=C/c3ccccc3)n2)n[nH]1 + C[As](C)SC[C@H](NC(=O)CC[C@H](N)C(=O)O)C(=O)NCC(=O)O [Darinaparsin] (first compound 0.04 µM, partner dose 0.4 µM)",258%
16,"O=C(Nc1cc(C(F)(F)F)cc(C(F)(F)F)c1)c1cc(Cl)ccc1O + C[As](C)SC[C@H](NC(=O)CC[C@H](N)C(=O)O)C(=O)NCC(=O)O [Darinaparsin] (first compound 0.016 µM, partner dose 0.4 µM)",135%
17,"Cc1cn(-c2cc(NC(=O)c3ccc(C)c(Nc4nccc(-c5cccnc5)n4)c3)cc(C(F)(F)F)c2)cn1 [nilotinib] + C[C@]12O[C@H](C[C@]1(O)CO)n1c3ccccc3c3c4c(c5c6ccccc6n2c5c31)CNC4=O [Lestaurtinib] (first compound 0.2 µM, partner dose 0.004 µM)",127%
18,"C[As](C)SC[C@H](NC(=O)CC[C@H](N)C(=O)O)C(=O)NCC(=O)O [Darinaparsin] + Cn1c(Nc2ccc(C(F)(F)F)cc2)nc2cc(Oc3ccnc(-c4ncc(C(F)(F)F)[nH]4)c3)ccc21 [CHIR265] (first compound 0.4 µM, partner dose 0.08 µM)",83.9%
